Data as given in PubChem BioAssay AID493246 (Drosophila RNAi Screening Center, 2011)
The deposit covers about 21,000 reagents; shown is an unselected part of those with a known target gene and a result. Over the whole deposit, 429 (2%) were called active. 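Values are raw and not normalised between plates; calls rest on per-plate z-scores that were not deposited.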 A plus sign joins genes that one reagent is predicted to hit. Not given: the amount of reagent, the time to read-out.

- Aim: 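Genome-wide search for dsRNAs that reduce cell number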 (primary screen)
- System: Drosophila Kc and S2R+ cells
- Reagent: long dsRNA against Drosophila genes
- Read-out: 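Raw, unnormalised count of remaining cells in each well; per-plate z-scores of cell number underlie the calls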
- Scale: Kc cell number and S2R+ cell number: higher = more cells remaining
- Hit rule: 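Counted as a hit if cell number falls by a z-score of at least 3 within its plate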

| target gene | DRSC id | Kc cell number, rep 1 | Kc cell number, rep 2 | S2R+ cell number, rep 1 | S2R+ cell number, rep 2 | outcome |
| --- | --- | --- | --- | --- | --- | --- |
| CG34183 | DRSC01099 | 1.76e6 | 1.83e6 | 1.11e6 | 1.24e6 | inactive |
| CG43736 + CG33692 (retired record) | DRSC18370 | 1.49e6 | 1.43e6 | 9.36e5 | 1.01e6 | inactive |
| CG43736 + CG33692 (retired record) | DRSC18371 | 1.66e6 | 1.64e6 | 1.09e6 | 1.21e6 | inactive |
| Dfd | DRSC12593 | 1.34e6 | 1.46e6 | 1.37e6 | 1.48e6 | inactive |
| CG10154 | DRSC09707 | 1.32e6 | 1.32e6 | 1.28e6 | 1.37e6 | inactive |
| chic | DRSC03507 | 1.34e6 | 1.23e6 | 1.12e6 | 1.29e6 | inactive |
| lcs | DRSC20580 | 1.56e6 | 1.46e6 | 1.04e6 | 1.14e6 | inactive |
| Smurf | DRSC07641 | 1.60e6 | 1.61e6 | 1.15e6 | 1.27e6 | inactive |
| CG4822 | DRSC00669 | 1.29e6 | 1.31e6 | 7.99e5 | 7.16e5 | inactive |
| wbl | DRSC07718 | 1.54e6 | 1.54e6 | 1.30e6 | 1.40e6 | inactive |
| Rassf | DRSC15612 | 1.54e6 | 1.57e6 | 1.21e6 | 1.25e6 | inactive |
| CG14105 | DRSC10107 | 1.24e6 | 1.30e6 | 1.23e6 | 1.31e6 | inactive |
| CG3436 | DRSC00605 | 6.81e5 | 9.68e5 | 2.34e5 | 3.12e5 | inactive |
| CR33317 | DRSC02653 | 1.56e6 | 1.68e6 | 1.37e6 | 4.01e5 | inactive |
| hec | DRSC19895 | 1.67e6 | 1.58e6 | 1.05e6 | 1.14e6 | inactive |
| CG12253 | DRSC02153 | 1.27e6 | 1.33e6 | 1.22e6 | 1.12e6 | inactive |
| Lam | DRSC03359 | 1.26e6 | 1.24e6 | 6.85e5 | 8.30e5 | active |
| CG6614 | DRSC02974 | 1.34e6 | 1.39e6 | 1.03e6 | 1.17e6 | inactive |
| CG31126 | DRSC14623 | 1.28e6 | 1.37e6 | 1.04e6 | 1.15e6 | inactive |
| yellow-b | DRSC03639 | 1.36e6 | 1.43e6 | 1.37e6 | 1.43e6 | inactive |
| trio | DRSC07928 | 1.51e6 | 1.44e6 | 9.97e5 | 1.15e6 | inactive |
| trio | DRSC08527 | 1.10e6 | 1.18e6 | 7.24e5 | 7.68e5 | inactive |
| trio | DRSC08740 | 1.60e6 | 1.37e6 | 9.80e5 | 1.40e6 | inactive |
| Dp | DRSC07402 | 1.02e6 | 1.13e6 | 5.19e5 | 6.00e5 | inactive |
| CG5282 | DRSC11775 | 1.44e6 | 1.50e6 | 1.26e6 | 1.29e6 | inactive |
| ihog | DRSC03157 | 1.31e6 | 1.34e6 | 6.47e5 | 7.65e5 | inactive |
| Obp57c | DRSC06384 | 1.69e6 | 1.65e6 | 1.24e6 | 1.39e6 | inactive |
| dsb | DRSC08407 | 1.27e6 | 1.24e6 | 7.37e5 | 9.13e5 | inactive |
| dsb | DRSC08542 | 1.45e6 | 1.26e6 | 9.55e5 | 1.18e6 | inactive |
| hng3 | DRSC08367 | 1.22e6 | 1.34e6 | 1.14e6 | 1.30e6 | inactive |
| CG33342 | DRSC13662 | 1.16e6 | 1.59e6 | 1.10e6 | 1.12e6 | inactive |
| CG15615 | DRSC06568 | 1.52e6 | 1.58e6 | 1.12e6 | 1.26e6 | inactive |
| CG13068 | DRSC09951 | 1.51e6 | 1.72e6 | 1.33e6 | 1.47e6 | inactive |
| stj | DRSC06124 | 1.44e6 | 1.60e6 | 7.59e5 | 1.07e6 | inactive |
| CG13058 | DRSC09941 | 1.57e6 | 1.59e6 | 1.21e6 | 1.33e6 | inactive |
| TwdlK | DRSC16045 | 1.46e6 | 1.50e6 | 6.45e5 | 7.90e5 | inactive |
| Pde9 | DRSC19746 | 1.71e6 | 1.53e6 | 1.05e6 | 1.10e6 | inactive |
| Pde9 | DRSC19874 | 1.54e6 | 1.63e6 | 1.04e6 | 1.17e6 | inactive |
| Pde9 | DRSC19875 | 1.62e6 | 1.67e6 | 1.04e6 | 1.14e6 | inactive |
| Pde9 | DRSC19876 | 1.81e6 | 1.72e6 | 1.11e6 | 1.16e6 | inactive |
